# No constants are given. Whether binding was seen depends on the method and setting. Some results given as binding are weak or reduced against the parent protein; the word gives no strength.
# Protein sequences, listed by entry. Tags and fused reporters are not part of them. Residues count along the entry.
# UniProt Q08722, residues 19-323: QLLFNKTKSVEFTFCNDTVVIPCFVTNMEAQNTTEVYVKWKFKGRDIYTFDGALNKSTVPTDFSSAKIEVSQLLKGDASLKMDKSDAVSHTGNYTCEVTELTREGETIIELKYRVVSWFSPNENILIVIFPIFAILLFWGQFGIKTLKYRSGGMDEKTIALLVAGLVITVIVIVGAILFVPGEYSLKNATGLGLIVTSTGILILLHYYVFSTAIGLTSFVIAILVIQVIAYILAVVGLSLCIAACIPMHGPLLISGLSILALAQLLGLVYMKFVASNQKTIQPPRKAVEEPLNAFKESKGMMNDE
# Molecular target: T1, CD47 on CHOK1-CD47 cells (UniProt Q08722 19-323)
# T1 construct: whole, on cells; The rabbits were immunized with human CD47, so human is likely
# Test: flow cytometry on CHOK1-CD47 cells
row,Binder,binding
1,"71D6 (antibody, V domains shown, Recombinant rabbit monoclonal antibody expressed in Expi293; it was detected with anti-human IgG Fc) VH: QSLEESGGDLVKPGASLTLTCTASGFSFSTSYWIYWVRQAPGKGLELIACIATGSDGSTYYASWASGRFTISKTSSTTVTLQMTSLTAADTATYFCAREAGNGVYNLWGQGTLVTVSS VL: AYDMTQTPASVEVAVGGTVTIKCQASESIRNALAWYQQKPGQPPKLLISGASKLASGVASRFKGSGSATEFTLTISDLECADAATYYCQQYYSSSNVDNGFGGGTEVVVK",binds
2,"70H1 (antibody, V domains shown, Rabbit-derived variable regions; also called 70H1.IgG1; 70H1 antibody) VH: QQQLEESGGGLVKPEGSLTLTCTASGFSFSSGYDMCWVRQAPGRGLEWIACIYTRSSGGTYYASWAKGRFTISKTSSTVDLRMTSLTAADTATYFCAGGRSSYRLNLWGQGALVTVSS VL: DVVMTQTPSPVEAAVGGTVTIKCQASQSISNELSWYQQKPGQPPKLLIYRASTLESGVSSRFKGSGSGTEFTLTISDLECADAATYYCQSTFYGDYGNAFGGGTEVVVK",binds
3,"70G1 (antibody, V domains shown, Recombinant rabbit monoclonal antibody expressed in Expi293; it was detected with anti-human IgG Fc) VH: QSVKESEGGLFKPTDTLTLTCTVSGFSLSNYAINWVRQAPGNGLEWIGIINGYGMTYYASWAKSRSTITRNTSENTVTLKLTSLTAADTATYFCARDRYGSYVGYSSDIWGPGTLVTVSS VL: AYDMTQTPASVEAAVGGTVTIKCQASQNISSRLAWYQQKPGQPPKLLIYGTSTLASGVPSRFRGSGSGTQFSLTISDLECADAATYYCQHGYYYSSSFTTYNAFGGGTEVVVK",binds

# Further lines, results first:
row,binding,Binder
1,binds,"69F12 (antibody, V domains shown, Recombinant rabbit monoclonal antibody expressed in Expi293; it was detected with anti-human IgG Fc) VH: QSVEESEGGLFKPTDTLTLTCTISGFSLSNYDMIWVRQAPGNGLEYIGIISSRDKAGHAAWAKRRSTITRNPKENTVTLKMTSLTVADTATYFCARRFSSMHGLDIWGPGTLVTVSS VL: AYDMTQTPSSVSAAVGGTVTIKCQASQSISNYLSWYQQKPGQPPKLLIYLASTLASGVPSRFKGSGSGTQFTLTISGVQCADAATYYCQQGYSSDSVDNVFGGGTEVVVK"
2,binds,"74F1 (antibody, V domains shown, Recombinant rabbit monoclonal antibody expressed in Expi293; it was detected with anti-human IgG Fc) VH: QQQLEESGGDLVKPEGSLTLTCTASGFSFSSRYNMCWVRQAPGKGLEWIACIYTGSSGSTYYASWAKGRFTISKTSSTVDLKMTSLTAADTATYFCAGGSYSYRLNLWGQGTLVTVSS VL: DVVMTQTPASVSTAVGGTVTIKCQASQSISNELSWYQQKPGQPPKLLIYRASTLESGVSSRFSGSGSGTEFTLTISDLECADAATYYCQATGYGDFGNAFGGGTEVVVK"

# Source: patent EP4793287A1, “TUMOR MICROENVIRONMENT SPECIFICALLY ACTIVATED CD47 ANTIBODY” (Affinity (Shanghai) Biopharmaceutical Co., Ltd., priority 2023, dated 2025)
